# Positions count from the first letter of the chain named. The list shows a part of the results. For some of these results: At the low end of the ranking the order means little.
# How the values were obtained:
# Conditions in all cases: yeast three-hybrid, YBZ-1, SC-Leu-His + 0.5 mM 3-AT, 4 days
# [1] = target: T1, PUM1 PUF domain R4-DWL N971D + H972W + Q975L (UniProt Q14671)
# T1 sequence: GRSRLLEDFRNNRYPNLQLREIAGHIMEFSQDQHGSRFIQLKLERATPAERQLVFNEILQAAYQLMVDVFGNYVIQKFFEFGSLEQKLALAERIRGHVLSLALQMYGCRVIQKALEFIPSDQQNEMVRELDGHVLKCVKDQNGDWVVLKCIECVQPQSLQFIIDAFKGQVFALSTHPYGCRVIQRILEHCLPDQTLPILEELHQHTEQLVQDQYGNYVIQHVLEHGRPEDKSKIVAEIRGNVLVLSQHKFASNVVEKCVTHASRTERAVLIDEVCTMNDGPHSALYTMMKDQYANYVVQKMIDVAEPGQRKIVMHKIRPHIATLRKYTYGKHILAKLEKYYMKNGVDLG
# [2] = target: T2, PUM1 PUF domain R4-DWM N971D + H972W + Q975M (UniProt Q14671)
# T2 sequence: T1 sequence with L148M
# [3] = target: T3, PUM1 PUF domain R4-DWR N971D + H972W + Q975R (UniProt Q14671)
# T3 sequence: T1 sequence with L148R
# [4] = target: T4, PUM1 PUF domain R4-DWS N971D + H972W + Q975S (UniProt Q14671)
# T4 sequence: T1 sequence with L148S
# [5] = target: T5, PUM1 PUF domain R4-DWV N971D + H972W + Q975V (UniProt Q14671)
# T5 sequence: T1 sequence with L148V
# [6] = target: T6, PUM1 PUF domain R4-DYA N971D + H972Y + Q975A (UniProt Q14671)
# T6 sequence: T1 sequence with W145Y, L148A
# [7] = target: T7, PUM1 PUF domain R4-DYG N971D + H972Y + Q975G (UniProt Q14671)
# T7 sequence: T1 sequence with W145Y, L148G
# [8] = target: T8, PUM1 PUF domain R4-DYN N971D + H972Y + Q975N (UniProt Q14671)
# T8 sequence: T1 sequence with W145Y, L148N
# [9] = target: T9, PUM1 PUF domain R4-DYR N971D + H972Y + Q975R (UniProt Q14671)
# T9 sequence: T1 sequence with W145Y, L148R
# [10] = target: T10, PUM1 PUF domain R4-DYV N971D + H972Y + Q975V (UniProt Q14671)
# T10 sequence: T1 sequence with W145Y, L148V
# [11] = target: T11, PUM1 PUF domain R4-EFD N971E + H972F + Q975D (UniProt Q14671)
# T11 sequence: T1 sequence with D144E, W145F, L148D
# [12] = target: T12, PUM1 PUF domain R4-EFG N971E + H972F + Q975G (UniProt Q14671)
# T12 sequence: T1 sequence with D144E, W145F, L148G
# [13] = target: T13, PUM1 PUF domain R4-EHD N971E + Q975D (UniProt Q14671)
# T13 sequence: T1 sequence with D144E, W145H, L148D
# [14] = target: T14, PUM1 PUF domain R4-EHG N971E + Q975G (UniProt Q14671)
# T14 sequence: T1 sequence with D144E, W145H, L148G
# [15] = target: T15, PUM1 PUF domain R4-EPG N971E + H972P + Q975G (UniProt Q14671)
# T15 sequence: T1 sequence with D144E, W145P, L148G
# [16] = target: T16, PUM1 PUF domain R4-EPR N971E + H972P + Q975R (UniProt Q14671)
# T16 sequence: T1 sequence with D144E, W145P, L148R
# [17] = target: T17, PUM1 PUF domain R4-EPS N971E + H972P + Q975S (UniProt Q14671)
# T17 sequence: T1 sequence with D144E, W145P, L148S
# [18] = target: T18, PUM1 PUF domain R4-ERC N971E + H972R + Q975C (UniProt Q14671)
# T18 sequence: T1 sequence with D144E, W145R, L148C
# [19] = target: T19, PUM1 PUF domain R4-ERQ N971E + H972R (UniProt Q14671)
# T19 sequence: T1 sequence with D144E, W145R, L148Q
# [20] = target: T20, PUM1 PUF domain R4-EYG N971E + H972Y + Q975G (UniProt Q14671)
# T20 sequence: T1 sequence with D144E, W145Y, L148G
# [21] = target: T21, PUM1 PUF domain R4-EYI N971E + H972Y + Q975I (UniProt Q14671)
# T21 sequence: T1 sequence with D144E, W145Y, L148I
# [22] = target: T22, PUM1 PUF domain R4-EYM N971E + H972Y + Q975M (UniProt Q14671)
# T22 sequence: T1 sequence with D144E, W145Y, L148M
# [23] = target: T23, PUM1 PUF domain R4-EYR N971E + H972Y + Q975R (UniProt Q14671)
# T23 sequence: T1 sequence with D144E, W145Y, L148R
# [24] = target: T24, PUM1 PUF domain R4-FAA N971F + H972A + Q975A (Homo sapiens) (UniProt Q14671)
# T24 sequence: T1 sequence with D144F, W145A, L148A
# [25] = target: T25, PUM1 PUF domain R4-FGC N971F + H972G + Q975C (UniProt Q14671)
# T25 sequence: T1 sequence with D144F, W145G, L148C
# [26] = target: T26, PUM1 PUF domain R4-FGQ N971F + H972G (UniProt Q14671)
# T26 sequence: T1 sequence with D144F, W145G, L148Q
# [27] = target: T27, PUM1 PUF domain R4-FGR N971F + H972G + Q975R (UniProt Q14671)
# T27 sequence: T1 sequence with D144F, W145G, L148R
# [28] = target: T28, PUM1 PUF domain R4-FGS N971F + H972G + Q975S (UniProt Q14671)
# T28 sequence: T1 sequence with D144F, W145G, L148S
# [29] = target: T29, PUM1 PUF domain R4-FNA N971F + H972N + Q975A (UniProt Q14671)
# T29 sequence: T1 sequence with D144F, W145N, L148A
# [30] = target: T30, PUM1 PUF domain R4-FNC N971F + H972N + Q975C (UniProt Q14671)
# T30 sequence: T1 sequence with D144F, W145N, L148C
# [31] = target: T31, PUM1 PUF domain R4-FNL N971F + H972N + Q975L (UniProt Q14671)
# T31 sequence: T1 sequence with D144F, W145N
# [32] = target: T32, PUM1 PUF domain R4-FNM N971F + H972N + Q975M (UniProt Q14671)
# T32 sequence: T1 sequence with D144F, W145N, L148M
# [33] = target: T33, PUM1 PUF domain R4-GCC N971G + H972C + Q975C (UniProt Q14671)
# T33 sequence: T1 sequence with D144G, W145C, L148C
# [34] = target: T34, PUM1 PUF domain R4-GCG N971G + H972C + Q975G (Homo sapiens) (UniProt Q14671)
# T34 sequence: T1 sequence with D144G, W145C, L148G
# [35] = target: T35, PUM1 PUF domain R4-GFW N971G + H972F + Q975W (UniProt Q14671)
# T35 sequence: T1 sequence with D144G, W145F, L148W
# [36] = target: T36, PUM1 PUF domain R4-GHP N971G + Q975P (UniProt Q14671)
# T36 sequence: T1 sequence with D144G, W145H, L148P
# [37] = target: T37, PUM1 PUF domain R4-GMC N971G + H972M + Q975C (UniProt Q14671)
# T37 sequence: T1 sequence with D144G, W145M, L148C
sequence,measurement,setting,value
GGCUAGAACUAGUGGAUCCCCCGGCGCCCGGCGGCUCGAGCCCGGGUAAGUGUAGAUAGUCUGCAUGCCGCCGGGCGCCAUGCCUGCAGGUCGACUCUAGAAAACAUG,binding signal (log2 enrichment (interaction score)),[1],< -5.67
same,binding signal (log2 enrichment (interaction score)),[2],< -5.62
same,binding signal (log2 enrichment (interaction score)),[3],< -7.33
same,binding signal (log2 enrichment (interaction score)),[4],< -6.32
same,binding signal (log2 enrichment (interaction score)),[5],< -6.81
same,binding signal (log2 enrichment (interaction score)),[6],< -5.33
same,binding signal (log2 enrichment (interaction score)),[7],< -6.77
same,binding signal (log2 enrichment (interaction score)),[8],< -5.75
same,binding signal (log2 enrichment (interaction score)),[9],< -5.64
same,binding signal (log2 enrichment (interaction score)),[10],< -7.03
same,binding signal (log2 enrichment (interaction score)),[11],< -6.96
same,binding signal (log2 enrichment (interaction score)),[12],< -7.34
same,binding signal (log2 enrichment (interaction score)),[13],< -6.13
same,binding signal (log2 enrichment (interaction score)),[14],< -6.43
same,binding signal (log2 enrichment (interaction score)),[15],< -6.53
same,binding signal (log2 enrichment (interaction score)),[16],< -5.48
same,binding signal (log2 enrichment (interaction score)),[17],< -8.59
same,binding signal (log2 enrichment (interaction score)),[18],< -5.31
same,binding signal (log2 enrichment (interaction score)),[19],< -5.85
same,binding signal (log2 enrichment (interaction score)),[20],< -7.89
same,binding signal (log2 enrichment (interaction score)),[21],< -6.59
same,binding signal (log2 enrichment (interaction score)),[22],< -5.31
same,binding signal (log2 enrichment (interaction score)),[23],< -5.73
same,binding signal (log2 enrichment (interaction score)),[24],< -5.27
same,binding signal (log2 enrichment (interaction score)),[25],< -7.91
same,binding signal (log2 enrichment (interaction score)),[26],< -5.38
same,binding signal (log2 enrichment (interaction score)),[27],< -7.91
same,binding signal (log2 enrichment (interaction score)),[28],< -7.32
same,binding signal (log2 enrichment (interaction score)),[29],< -6.27
same,binding signal (log2 enrichment (interaction score)),[30],< -5.16
same,binding signal (log2 enrichment (interaction score)),[31],< -5.61
same,binding signal (log2 enrichment (interaction score)),[32],< -4.74
same,binding signal (log2 enrichment (interaction score)),[33],< -6.95
same,binding signal (log2 enrichment (interaction score)),[34],-2.28
same,binding signal (log2 enrichment (interaction score)),[35],< -4.94
same,binding signal (log2 enrichment (interaction score)),[36],< -6.35
same,binding signal (log2 enrichment (interaction score)),[37],< -6.63

# Exported as tab-separated lines: entries from further up.
sequence	measurement	setting	value
GGCUAGAACUAGUGGAUCCCCCGGCGCCCGGCGGCUCGAGCCCGGGUAAGUGUAGAUAGUCUGCAUGCCGCCGGGCGCCAUGCCUGCAGGUCGACUCUAGAAAACAUG	binding signal (log2 enrichment (interaction score))	[2]	< -5.62
same	binding signal (log2 enrichment (interaction score))	[33]	< -6.95
same	binding signal (log2 enrichment (interaction score))	[34]	-2.28

# Reference: paper PMC8384837
